# Measurements published in PubChem BioAssay AID1347076 (National Center for Advancing Translational Sciences (NCATS), 2019).
# Several values for one entry are separate records, joined by “and”; a condition that tells them apart may be missing. Equal values may be shown once. In all, about 400,000 compounds went through this assay and about 13,000 (3.2%) were called active. Inconclusive results, whose numbers are uncertain, are shown with a selection of clear calls. The call rests on the fitted dose curve; in most records, active means well fitted cell-killing curve with a large enough effect; inconclusive means small, poorly fitted or top-dose-only effect, or effect the other way; inactive means flat fitted curve, though single readings scatter. A potency beside an inconclusive call is a rough fit, not a confirmed value.
# Assay: qHTS assay for MDR1-selective chemotherapeutics: Primary screen using the drug-selected MDR subline cells KB-V1; further: nearly all actives have a fitted effect of over 60% in size
# Settings: KB-V1 MDR cells viability, CellTiter-Glo, 72 h; series mostly up to 46.1 µM
# In short: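 KB-V1 cells (P-gp-expressing MDR subline of KB-3-1) in phenol-red-free DMEM with 10% FBS were exposed to library compounds over a concentration series for 72 h at 37 degrees C. Viability read by CellTiter-Glo luminescence; concentration-effect curves fitted after normalization.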
# Potency means the concentration at half of the fitted maximal effect.
row,SMILES,Potency
1,CC(=C/c1ccccc1)/C=N/NC(=O)c1cc(C)oc1C,active: 14.6 µM
2,Clc1ccc(-[n+]2c(-c3cccc(Br)c3)[nH]c3nc4ccccc4nc32)cc1,"inconclusive: 14.6 µM [cytotoxic, partial curve, poor fit]"
3,CN(C)c1ccc(/C=C/C=N/Nc2nc(N3CCOCC3)nc(N3CCOCC3)n2)cc1,inactive
4,Cn1c(N)cc(-c2ccc(F)cc2)c(C#N)c1=O,"inconclusive: 16.4 µM [rising, single point]"
5,COc1ccccc1CNC(=O)Cn1nc(C)c([N+](=O)[O-])c1C,"inconclusive: 14.6 µM [rising, single point]"
6,COc1cccc(NC(=O)CN(C)C(=O)/C=C/c2ccc(S(=O)(=O)N3CCCCCC3)cc2)c1,"inconclusive: 18.4 µM [cytotoxic, single point]"
7,Cc1ccc2c(c1)N(C(=O)N1CCC(C(=O)NCc3ccccc3C)CC1)CC(C)O2 (centres undefined),inactive
8,COc1ccc(-c2csc(C(O)c3cccc(OC)c3)n2)cc1 (centres undefined),inactive
9,COc1cccc(-n2cnc3scc(-c4cccs4)c3c2=O)c1,"inconclusive: 20.6 µM [cytotoxic, partial curve]"
10,Cc1cc(C)n2nc(N)c(N=Nc3ccc(Cl)cc3)c2n1,"inconclusive: 10.3 µM [cytotoxic, partial curve, poor fit]"
11,CCCn1c(C2CCCN2c2nc(C)cs2)nc2cc(Cl)c(Cl)cc21 (centres undefined),inactive
12,CCc1sc(C(=O)Nc2nc(C)cs2)cc1C,"inconclusive: 29.1 µM [cytotoxic, single point]"
13,O=c1cc(-c2ccncc2)oc2c1ccc1ccccc12,"inconclusive: 23.1 µM [cytotoxic, single point]"
14,Cc1ccc(C)c(N2CCN(C(=O)c3cc4c(C)nc5ccccc5c4o3)CC2)c1,inactive
15,COc1ccc(/C=C2\CN(Cc3ccccc3)C/C(=C\c3ccc(OC)cc3)C2=O)cc1,"inconclusive: 29.1 µM [cytotoxic, single point]"
16,Cc1ccc(S(=O)(=O)NC(CC(=O)O)c2cccs2)cc1 (centres undefined),inactive
17,NC(=NCCCCCCN=C(N)/N=C(\N)Nc1ccc(Cl)cc1)/N=C(\N)Nc1ccc(Cl)cc1,"inconclusive: 18.4 µM [cytotoxic, single point] and inconclusive: 14.6 µM [cytotoxic, partial curve]"
18,CC(=O)N1c2ccc(S(=O)(=O)NCc3ccccc3Cl)cc2CC1C (centres undefined),"inconclusive: 23.1 µM [cytotoxic, single point]"
19,CCCCN(C(=O)NC(=O)Nc1nc2ccc(OC)cc2s1)S(C)(=O)=O,active: 9.2 µM
20,Cc1cc(Cl)ccc1NC(=O)C(=O)N/N=C/c1ccc2c(c1)OCO2,"inconclusive: 3.66 µM [rising, full curve, poor fit]"
21,CCCNC(=O)Cn1c(=O)cnc2ccccc21,"inconclusive: 29.1 µM [rising, single point]"
22,CC1=C(C(=O)Nc2cccnc2)C(c2cccc(F)c2)n2nc(SCc3ccccc3F)nc2N1 (centres undefined),"inconclusive: 8.2 µM [rising, partial curve, poor fit]"
23,C[C@H](CO)N1C[C@H](C)[C@@H](CN(C)S(=O)(=O)c2cccs2)OCc2cnnn2CCCC1=O,inactive

row,SMILES,Potency
1,O=C(c1ccccc1Sc1ccccc1[N+](=O)[O-])N1CCCCC1,"inconclusive: 20.6 µM [cytotoxic, partial curve, poor fit]"
2,CC(C)c1ccc(Nc2nnc(SCC(=O)c3nnc(-c4ccccc4)o3)s2)cc1,"inconclusive: 16.4 µM [cytotoxic, partial curve, poor fit]"
3,O=C(Cc1ccccc1)NNC(=O)c1ccccc1C(=O)O,inactive
4,O=C(CN1CCN(Cc2ccccc2)CC1)Nc1ccc([N+](=O)[O-])cc1C(=O)Nc1ccccc1F,"inconclusive: 29.1 µM [cytotoxic, single point]"
5,CN1CCN(c2ccc([N+](=O)[O-])cc2C(=O)c2ccc(Cl)cc2)CC1,active: 4.61 µM
6,CC1(C)N=C(SCc2ccc(F)cc2)c2ccccc2N1,"inconclusive: 29.1 µM [cytotoxic, single point]"
7,Cc1cc(C)nc(N2CCC(C(=O)NNC(=O)c3ccc(Cl)cc3)CC2)n1,"inconclusive: 9.2 µM [cytotoxic, partial curve, poor fit]"
8,CCOP(=O)(OCC)C(C#N)=C1SCN(c2ccccc2)CS1,"inconclusive: 29.1 µM [rising, single point]"
9,COc1ccc(OC)c(C(=O)NC(CC(N)=O)c2ccc(NCCN3CCCC3)c([N+](=O)[O-])c2)c1 (centres undefined),"inconclusive: 18.4 µM [cytotoxic, single point]"
10,COc1ccc(C(=O)/C=C/c2ccc(OC)c(Cn3nnc4ccccc43)c2)cc1,"inconclusive: 29.1 µM [cytotoxic, single point]"
11,Cc1c(C#N)c(N=CN(C)C)c(C(=O)c2ccccc2)n1-c1ccc(Br)cc1,inactive
12,OC(CSc1nnnn1-c1ccccc1)Cn1c2ccccc2c2ccccc21 (centres undefined),active: 20.6 µM
13,Cc1cc(-c2ccccc2)nc(N(C)C)c1S(C)(=O)=O,inactive
14,COC(=O)C1=NN(c2ccc(C)cc2)C2(S1)SC(C(C)=O)=C(C)N2c1ccccc1 (centres undefined),"inconclusive: 32.6 µM [cytotoxic, single point]"
15,CN1CCN(c2ccc(CNC(=O)c3cccc4c(-c5ccc(F)c(F)c5)coc34)cc2)CC1,"inconclusive: 18.4 µM [cytotoxic, single point]"
16,O=C(c1ccccc1)c1sc(Nc2ccc3c(c2)OCO3)nc1-c1ccccc1,"inconclusive: 20.6 µM [cytotoxic, single point]"
17,COc1ccccc1-n1nnnc1SCC(=O)N(C)C1CCS(=O)(=O)C1 (centres undefined),"inconclusive: 29.1 µM [rising, single point]"
18,CCOc1ccc(NC(=S)N2CCC(N(C)CC3CCCO3)CC2)cc1 (centres undefined),"inconclusive: 23.1 µM [cytotoxic, partial curve, poor fit]"
19,Cn1c(N)c(C(=O)COC(=O)CCCc2c[nH]c3ccccc23)c(=O)n(C)c1=O,"inconclusive: 7.31 µM [rising, partial curve]"
20,CCOC(=O)c1c(-c2ccccc2)csc1NC(=O)C(C)NCc1ccco1 (centres undefined),"inconclusive: 14.6 µM [cytotoxic, partial curve]"
21,CC(C)c1ccc(C(C(=O)NC2CCCCC2)N(C(=O)c2csnn2)C2CC2)cc1 (centres undefined),inactive
22,CCOc1c(Cl)cc(/C=N/NC(N)=S)cc1OC,active: 7.31 µM
23,Cc1cc(S(=O)(=O)Nc2ccc(C(=O)N3CCN(c4ccccc4O)CC3)cc2)ccc1F,inactive

row,SMILES,Potency
1,CCCCCCCCNC(=O)CCNC(=O)c1ccc(C(C)(C)C)cc1,active: 13 µM
2,O=C(NCCc1ccccc1)C1CCCN(C(=O)Nc2ccc(F)cc2)C1 (centres undefined),"inconclusive: 29.1 µM [cytotoxic, single point]"
3,Cc1nn2c(-c3ccccc3)ccnc2c1-c1ccccc1,active: 14.6 µM
4,N=c1oc2cc(O)ccc2cc1C(=O)Nc1nc2ccccc2s1,inactive
5,CS(=O)(=O)c1ccc(-c2nnc(NC(=O)c3ccco3)o2)cc1,inactive
6,Cc1nc2c(C)cccc2cc1C(=O)N/N=C/c1cccc([N+](=O)[O-])c1,"inconclusive: 29.1 µM [cytotoxic, single point]"
7,Cc1c(CNC2CCCCC2)c(C(=O)O)c(C)n1Cc1ccccc1F,"inconclusive: 29.1 µM [rising, single point]"
8,C/C(=N/NC(=O)Cc1cccc2ccccc12)c1cccs1,"inconclusive: 20.6 µM [cytotoxic, single point]"
9,O=C(Nc1ccc(NC(=O)c2cc3ccccc3o2)cc1)c1ccco1,"inconclusive: 18.4 µM [cytotoxic, partial curve, poor fit]"
10,Cn1c(=O)n(C)c2cc([N+](=O)[O-])c(N3CCN(C(=O)c4ccccc4Cl)CC3)cc21,active: 16.4 µM
11,CCOC(=O)N1CCN(C(=O)CSCc2ccc(Cl)cc2)CC1,"inconclusive: 5.17 µM [cytotoxic, full curve, poor fit]"
12,CCOc1ccc(N(CC(=O)NCCSCc2ccccc2)S(C)(=O)=O)cc1,"inconclusive: 29.1 µM [cytotoxic, single point]"
13,O=C(Nc1ccc(Cl)cc1N1CCOCC1)C1CCCCC1,"inconclusive: 29.1 µM [cytotoxic, single point]"
14,Cc1cccc(-c2c3c(=O)n(C)c(=O)n(C)c3c3nnc4ccccc4n23)c1,"inconclusive: 4.11 µM [rising, partial curve, poor fit]"
15,O=C(CN1CCN(c2ccccn2)CC1)Nc1ccc2ccccc2c1,"inconclusive: 18.4 µM [cytotoxic, single point]"
16,Cc1ccc(C)c(NC(=O)c2cc[n+](C)cc2)c1,inactive
17,Nc1nc(COC(=O)c2ccc3c(c2)OCCO3)nc(Nc2ccccc2)n1,active: 20.6 µM
18,O=C(OCCNc1nc(-c2ccccc2)nc2ccccc12)c1cccnc1,"inconclusive: 29.1 µM [cytotoxic, single point]"
19,COc1cccc(-c2nnc(NC(=O)C3CCCCC3)o2)c1,inactive
20,CC(C)(C)C1CCC(=O)N(CCOc2ccccc2)CC1 (centres undefined),"inconclusive: 18.4 µM [cytotoxic, partial curve]"
21,O=C(CN1CCOCC1)NC1C2CC3CC(C2)CC1C3 (centres undefined),"inconclusive: 8.2 µM [rising, partial curve, poor fit]"
22,CC1=C(C#N)C(C)C2=C(CC(C)(C)CC2=O)N1 (centres undefined),inactive
23,COc1ccc(CNC(=O)CCc2nc(-c3ccccc3F)no2)c(OC)c1,"inconclusive: 32.6 µM [cytotoxic, single point]"
